Data reported in patent US4024248 (dated 1977).
Square brackets hold non-standard residues; d marks the D form. * marks the point of attachment. Cbz = O=C(OCc1ccccc1)*; Boc = CC(C)(C)OC(=O)*

Assay: general procedure: solution-phase peptide synthesis; DCC/HOBt; active esters (OTcp, ONSu) with HOBt; azide coupling (tert.-butyl nitr)
Details: 2 HCl (intermediates)
[1] = coupling step, diacetate (final peptides)
[2] = late stage modification step, diacetate (final peptides)
[3] = coupling step, calculated on Z-Ser-Tyr(Bzl)-OH, diacetate (final peptides)
[4] = coupling step, calculated on H-Arg-Pro-NH-C2 H5 . 2 HCl, diacetate (final peptides)

Substance: Cbz-[dK](Boc)LRPG-NH2
- step yield [1]: 77%

Substance: Glu-His-Trp-Ser-Tyr-D-Glu(OBu^t)-Leu-Arg-Pro-NH-C2 H5 -diacetate
- step yield [1]: 30%

Substance: Glu-His-Trp-Ser-Tyr-D-Lys(Boc)-Leu-Arg-Pro-Gly-NH2 -diacetate
- step yield [1]: 17%

Substance: Glu-His-Trp-Ser-Tyr-D-Ser(Bu^t)-Leu-Arg-Pro-NH-C2 H5 -diacetate
- step yield [1]: 25%

Substance: Glu-His-Trp-Ser-Tyr-D-Ser(Bu^t)-Leu-Arg-Pro-cyclopropyl amidediacetate
- step yield [1]: 32%

Substance: Glu-His-Trp-Ser-Tyr-D-Ser(Bu^t)-Ser(Bu^t)-Arg-Pro-NH-C2 H5
- step yield [1]: 38%

Substance: H-D-Glu(OBu^t)-Leu-Arg-Pro-NH-C2 H5 ^. 2 HCl
- step yield [2]: 99.5%

Substance: H-D-Lys(Boc)-Leu-Arg-Pro-Gly-NH2 ^. 2 HCl
- step yield (coupling step, calculated on Z-D-Lys(Boc)-OTcp, diacetate (final peptides)): 74%
- difficulty met [1]: not uniform according to thin-layer chromatography (contamination by two by-products)

Substance: H-D-Ser(Bu^t)-Leu-Arg-Pro-NH-C2 H5 ^. HCl
- step yield [2]: 93%

Substance: H-D-Ser(Bu^t)-Leu-Arg-Pro-cyclopropyl amide . 2 HCl
- step yield [2]: 94%

Substance: H-D-Ser(Bu^t)-Ser(Bu^t)-Arg-Pro-NH-C2 H5 ^. 2 HCl
- step yield (coupling step, calculated on Z-D-Ser(Bu^t)-Otcp, diacetate (final peptides)): 62%

Substance: H-Ser-Tyr-D-Glu(OBu^t)-Leu-Arg-Pro-NH-C2 H5 ^. 2 HCl
- step yield (coupling step, calculated on Z-D-Glu(OBu^t)-Leu-Arg-Pro-NH-C2 H5, diacetate (final peptides)): 47%

Substance: H-Ser-Tyr-D-Ser(Bu^t)-Leu-Arg-Pro-NH-C2 H5 ^. 2 HCl
- step yield (coupling step, calculated on Z-D-Ser(Bu^t) Leu-Arg-Pro-NH-C2 H5, diacetate (final peptides)): 75%

Substance: H-Ser-Tyr-D-Ser(Bu^t)-Leu-Arg-Pro-cyclopropyl amide . 2 HCl
- step yield [3]: 70%

Substance: H-Ser-Tyr-D-Ser(Bu^t)-Ser(Bu^t)-Arg-Pro-NH-C2 H5 ^. 2 HCl
- step yield [3]: 35%

Substance: H-Trp-Ser-Tyr-D-Lys(Boc)-Leu-Arg-Pro-Gly-NH2 ^. 2 HCl
- step yield [1]: 30%

Substance: Z-D-Glu(OBu^t)-Leu-Arg-Pro-NH-C2 H5
- step yield [4]: 81%

Substance: Z-D-Ser(Bu^t)-Leu-Arg-Pro-NH-C2 H5
- step yield [4]: 71%

Substance: Z-D-Ser(Bu^t)-Leu-Arg-Pro-cyclopropyl amide
- step yield (coupling step, calculated on H-Arg-Pro-cyclopropylamide . 2 HCl, diacetate (final peptides)): 65%

Substance: Z-Ser-Tyr(Bzl)-D-Ser(Bu^t)-Leu-Arg-Pro-cyclopropyl amide
- step yield [1]: 71%
